By UniProt entry, the sequences of proteins in these tests, tags left out. Where a name states a change or a piece, a line headed by the entry shows the natural chain unless it says otherwise.
UniProt P08253: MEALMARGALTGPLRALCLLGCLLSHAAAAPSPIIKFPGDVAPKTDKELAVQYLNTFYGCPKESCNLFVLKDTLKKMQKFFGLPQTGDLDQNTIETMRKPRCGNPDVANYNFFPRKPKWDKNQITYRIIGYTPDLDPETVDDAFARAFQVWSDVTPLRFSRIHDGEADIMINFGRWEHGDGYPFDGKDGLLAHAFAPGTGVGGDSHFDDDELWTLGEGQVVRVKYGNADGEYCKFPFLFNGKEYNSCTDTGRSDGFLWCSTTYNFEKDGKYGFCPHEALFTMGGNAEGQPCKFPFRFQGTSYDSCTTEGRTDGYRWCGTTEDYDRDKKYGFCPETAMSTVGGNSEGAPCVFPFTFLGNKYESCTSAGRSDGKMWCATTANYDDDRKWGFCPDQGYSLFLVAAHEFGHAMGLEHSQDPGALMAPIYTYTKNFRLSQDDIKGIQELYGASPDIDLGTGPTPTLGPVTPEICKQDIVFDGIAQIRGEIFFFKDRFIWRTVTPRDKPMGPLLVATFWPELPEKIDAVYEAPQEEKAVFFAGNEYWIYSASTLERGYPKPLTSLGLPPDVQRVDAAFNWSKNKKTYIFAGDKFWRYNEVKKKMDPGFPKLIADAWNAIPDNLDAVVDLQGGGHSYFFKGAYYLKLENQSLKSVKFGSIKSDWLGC

In article PMC6433683:

Key:
[1] = target: T1, GP73‐c‐flag (Golgi phosphoprotein 73, from pCMV3‐GOLM1‐flag) (human) (UniProt Q8NBJ4); test: co-IP; 293T cells transfected for 48 h with pCMV3‐GOLM1‐flag and pCMV‐MMP‐2‐HA; RIPA lysate; Protein A/G beads with anti‐flag antibody; immunoblot
T1 sequence: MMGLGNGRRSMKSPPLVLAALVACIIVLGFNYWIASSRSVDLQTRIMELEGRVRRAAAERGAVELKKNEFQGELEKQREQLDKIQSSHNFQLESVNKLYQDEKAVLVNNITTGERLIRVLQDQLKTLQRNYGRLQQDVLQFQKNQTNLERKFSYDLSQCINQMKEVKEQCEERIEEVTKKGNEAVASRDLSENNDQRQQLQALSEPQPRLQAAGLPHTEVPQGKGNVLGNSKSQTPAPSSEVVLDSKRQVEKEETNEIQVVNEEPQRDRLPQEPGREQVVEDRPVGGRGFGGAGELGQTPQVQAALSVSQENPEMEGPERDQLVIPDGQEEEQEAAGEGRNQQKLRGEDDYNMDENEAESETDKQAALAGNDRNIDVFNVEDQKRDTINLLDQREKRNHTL

[2] = target: T2, GP73 Δ2‐12 deletion mutant with c‐flag tag (human) (UniProt Q8NBJ4); test: co-IP; flag-tagged GP73 deletion mutants and pCMV‐MMP2 cotransfected into 293T cells for 48 h; Protein A/G beads with anti‐flag antibody; immunoblot
T2 sequence: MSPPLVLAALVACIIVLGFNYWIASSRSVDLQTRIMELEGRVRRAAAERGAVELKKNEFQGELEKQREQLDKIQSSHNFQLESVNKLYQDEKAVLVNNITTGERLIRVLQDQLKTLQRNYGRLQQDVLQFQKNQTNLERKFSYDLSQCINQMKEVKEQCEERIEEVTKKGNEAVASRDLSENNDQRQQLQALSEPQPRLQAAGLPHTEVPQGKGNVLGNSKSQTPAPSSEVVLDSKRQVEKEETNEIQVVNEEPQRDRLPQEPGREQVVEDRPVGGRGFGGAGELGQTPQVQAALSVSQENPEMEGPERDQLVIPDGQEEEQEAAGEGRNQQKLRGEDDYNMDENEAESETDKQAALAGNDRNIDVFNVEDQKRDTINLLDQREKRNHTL

[3] = target: T3, GP73 Δ5‐12 deletion mutant with c‐flag tag (human) (UniProt Q8NBJ4); test: as above
T3 sequence: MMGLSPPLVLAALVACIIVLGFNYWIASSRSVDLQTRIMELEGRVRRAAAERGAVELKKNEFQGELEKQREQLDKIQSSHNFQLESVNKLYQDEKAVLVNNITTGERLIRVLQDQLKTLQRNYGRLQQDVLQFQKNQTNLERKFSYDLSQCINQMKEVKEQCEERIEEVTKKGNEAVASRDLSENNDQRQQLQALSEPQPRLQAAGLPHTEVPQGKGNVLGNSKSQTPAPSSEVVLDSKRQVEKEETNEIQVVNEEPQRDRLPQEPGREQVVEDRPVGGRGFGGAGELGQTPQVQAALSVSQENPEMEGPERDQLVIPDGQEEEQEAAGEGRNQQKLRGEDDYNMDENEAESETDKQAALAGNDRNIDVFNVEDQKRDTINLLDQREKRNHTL

Row | binding [1] | binding [2] | binding [3] | Substance
1 | binds |  |  | MMP‐2‐c‐HA (matrix metalloproteinase‐2, from pCMV‐MMP‐2‐HA) (from UniProt P08253)
2 |  | no binding | no binding | exogenous MMP‐2 (from pCMV‐MMP‐2) (from UniProt P08253)

These are yes or no findings as the source states them, for the method shown. Binding seen in cells or lysates may run through a third protein. For part of these data: Binding can be weak; no strength is given. Tags and fused reporters may be left off the sequences shown.
